Values from PubChem BioAssay AID504764 (Drosophila RNAi Screening Center, 2011)
Test: 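Genome-wide screen for regulators of Notch-driven gene expression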 (primary screen). System: Drosophila Kc167 cells. Knock-down reagent: long dsRNA against Drosophila genes. Timing: about 5 days (4 days dsRNA, then 24 h after transfection). Treatment: transfection of constitutively active membrane-tethered Notch lacking the extracellular domain, read 24 h later. Measured: 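Light from a Notch-responsive E(spl)m3 luciferase reporter under active Notch, with control-promoter and no-Notch reporter wells to normalise; raw counts from paired wells a and b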. Direction: induced reporter light, run 1, well a and induced reporter light, run 1, well b: higher = more light from the Notch target reporter with active Notch; control promoter light, run 1, well a and control promoter light, run 1, well b: higher = more light from the viral control promoter (cell number, transfection, viability); uninduced reporter light, run 1, well a: higher = more light from the Notch target reporter without active Notch. Rule for the call: 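Hit if the duplicate-averaged log2 ratio of induced to control-promoter light gives a plate-wise z beyond ±2, or induced to uninduced beyond ±1.8; weak-control or discordant-duplicate wells dropped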. Calls: active = modifier hit (raised or lowered Notch signal); inactive = not a hit.
The screen tested about 22,000 reagents; below is an unselected part of those with a known target gene and a result. In the full data, 403 (1.9%) are marked active. 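Unnormalised raw counts per well; ratio z-scores behind the hit calls and whether each hit raises or lowers signal are not deposited.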 Reagents against one gene are numbered here. A plus sign joins genes that one reagent is predicted to hit. The record does not give: the amount of reagent.

Target gene	reagent no.	induced reporter light, run 1, well a	induced reporter light, run 1, well b	control promoter light, run 1, well a	control promoter light, run 1, well b	uninduced reporter light, run 1, well a	Call
CG40005 (retired record) + cta	1	83630	1.01e5	79725	87360	8565	inactive
Ssadh	1	1.78e5	2.18e5	2.12e5	1.87e5	11340	inactive
pzg	1	88510	91990	88395	1.10e5	9665	inactive
CG7755	1	1.84e5	1.24e5	1.56e5	2.21e5	13705	inactive
RpLP2	1	6965	8020	11545	8755	1110	inactive
CG7201	1	2.65e5	2.27e5	3.11e5	2.39e5	6700	inactive
ppk15	1	1.52e5	1.31e5	1.57e5	1.89e5	11230	inactive
hzg	1	1.45e5	1.37e5	1.04e5	1.12e5	15578	inactive
h-cup + Rbp	1	2.54e5	2.32e5	2.06e5	2.14e5	18650	inactive
CG31404	1	2.21e5	1.88e5	2.18e5	2.11e5	10792	active
Fer3HCH	1	1.28e5	1.40e5	2.77e5	1.90e5	9380	inactive
CR11235	1	82250	1.12e5	1.18e5	1.51e5	11085	inactive
Osi23	1	1.23e5	1.25e5	1.63e5	1.70e5	11795	inactive
CG3420	1	2.54e5	2.25e5	2.65e5	2.47e5	19270	inactive
GATAe	1	1.15e5	89565	1.03e5	1.18e5	12020	inactive
CG8298	1	95205	1.10e5	1.31e5	1.19e5	8830	inactive
CG17159 + CG17162	1	68175	89675	98205	1.20e5	11420	inactive
CG17159 + CG17162	2	93390	97290	1.50e5	1.41e5	11510	inactive
Mst57Da	1	1.08e5	1.09e5	1.90e5	1.54e5	9300	inactive
Shal	1	2.41e5	2.46e5	3.15e5	2.61e5	19325	inactive
Shal	2	2.23e5	1.59e5	1.25e5	1.11e5	11875	inactive
bonsai	1	2.01e5	1.85e5	1.74e5	1.77e5	13920	inactive
Klp61F	1	64300	67210	79275	77365	8455	inactive
CG15107	1	1.28e5	1.10e5	1.10e5	1.62e5	10000	inactive
dpp	1	1.41e5	1.12e5	1.87e5	2.18e5	9425	inactive
dpp	2	1.20e5	1.10e5	1.39e5	1.72e5	8182	inactive
dpp	3	1.36e5	1.04e5	98970	61265	9545	inactive
lectin-46Ca	1	2.20e5	1.92e5	2.28e5	2.17e5	17692	inactive
Cpr66Cb	1	2.01e5	2.03e5	2.58e5	2.24e5	12042	inactive
mdu	1	7580	7680	3755	4540	2860	inactive
His1:CG33816 + His1:CG33828 + His1:CG33819 + 21 more	1	45730	64735	70760	66545	6420	inactive
ranshi	1	83420	87525	58130	42915	6410	inactive
Vm26Ac	1	87775	50045	54345	58755	4692	inactive
CG5618	1	1.64e5	1.41e5	1.28e5	1.53e5	13480	inactive
CG11562	1	70340	51160	41500	20005	5080	inactive
CG3517	1	1.51e5	1.69e5	1.57e5	2.08e5	14415	inactive
CG8516	1	70655	90085	66390	66755	5490	inactive
CG12590	1	1.11e5	1.43e5	1.47e5	1.48e5	9810	inactive
erm	1	50450	48480	43620	46535	3320	inactive
AsnS	1	2.30e5	2.64e5	3.38e5	2.72e5	20210	inactive
CG2681	1	2.11e5	1.90e5	2.15e5	2.05e5	12655	inactive
ADD1	1	1.05e5	96520	1.23e5	1.21e5	9065	inactive
p24-1	1	1.25e5	1.33e5	2.18e5	2.20e5	9090	inactive
Blos4	1	1.28e5	1.08e5	1.50e5	1.48e5	5905	inactive
Dh44	1	1.48e5	1.19e5	1.94e5	2.26e5	10745	inactive
Dh44	2	94175	85920	73665	54515	4730	inactive
drongo	1	83160	1.14e5	60585	71755	10892	inactive
CG2685	1	63215	55585	78320	93130	3050	inactive
frm	1	1.57e5	1.79e5	1.07e5	79190	13540	inactive
GAPsec	1	1.07e5	97280	92070	24060	9240	inactive

No new results follow: entries from further up.
Target gene	reagent no.	induced reporter light, run 1, well a	induced reporter light, run 1, well b	control promoter light, run 1, well a	control promoter light, run 1, well b	uninduced reporter light, run 1, well a	Call
CG40005 (retired record) + cta	1	83630	1.01e5	79725	87360	8565	inactive
Ssadh	1	1.78e5	2.18e5	2.12e5	1.87e5	11340	inactive
pzg	1	88510	91990	88395	1.10e5	9665	inactive
CG7755	1	1.84e5	1.24e5	1.56e5	2.21e5	13705	inactive
